Assay results published in patent publication US5741892A, “Pentapeptides as antitumor agents” (Basf Aktiengesellschaft, priority 1996, dated 1998).
Not every detail of the peptide structures is certain; ends, links or a residue may be inferred. For at least one compound, name, drawing or mass did not settle the structure. Non-standard residues stand in square brackets, D forms with d. Residues, ends and D or L forms follow the SMILES beside them. *: point of attachment. Dil = CC[C@H](C)[C@H](NC)[C@@H](CC(=O)O)OC; NMe2Val = CC(C)[C@@H](C(=O)*)N(C)C; NHiPr = CC(C)N*

System: HT-29 colon carcinoma cells
Test: In vitro cytotoxicity, microculture tetrazolium assay (MTT)
Assay type: cell-based
Settings: HT-29 cells, 48 hours incubation, concentration giving T/C of 50%

Compound	IC50 [nM]
CO[C@H](CC(=O)N1CCC[C@H]1C(=O)N1CCC[C@H]1C(=O)Nc1nccs1)[C@H](C(C)C)N(C)C(=O)[C@@H](NC(=O)[C@H](C(C)C)N(C)C)C(C)C [Compound 1, (3R,4S)-4-[N-(N,N-dimethyl-L-valyl-L-valyl)-N-methylamino]-3-methoxy-5-methyl-hexanoyl-prolylprolyl-thiazolyl(2)-amide]	2
CO[C@H](CC(=O)N1CCC[C@H]1C(=O)N1CCC[C@H]1C(=O)NCc1ccccc1)[C@H](C(C)C)N(C)C(=O)[C@@H](NC(=O)[C@H](C(C)C)N(C)C)C(C)C [Compound 2, (3R,4S)-4-[N-(N,N-dimethyl-L-valyl-L-valyl)-N-methylamino]-3-methoxy-5-methyl-hexanoyl-prolyl-prolyl-benzylamide]	4
CC[C@H](C)[C@@H]([C@@H](CC(=O)N1CCC[C@H]1C(=O)N1CCC[C@H]1C(=O)NC(C)C)OC)N(C)C(=O)[C@@H](NC(=O)[C@H](C(C)C)N(C)C)C(C)C [Compound 3, (3R,4S,5S)-4-[N-(N,N-dimethyl-L-Valyl-L-valyl)-N-methylamino]-3-methoxy-5-methyl-heptanoyl-prolyl-prolyl-isopropylamide] (NMe2Val-V[Dil]PP-NHiPr)	6
